{"source": "PubChem BioAssay AID1259317 – Drosophila RNAi Screening Center – 2017", "purpose": "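Knockdowns that alter fly cell sensitivity to manganese chloride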 (primary screen)", "system": "Drosophila S2R+ cells", "reagents": "long dsRNA against Drosophila genes", "duration": "5 days (4 days knockdown, then 1 day metal)", "challenge": "manganese chloride added to 15 mM final for 1 day", "measured": "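Cellular ATP measured by luciferase luminescence after 4 days knockdown then 1 day of 15 mM manganese chloride; z-score averaged over three plates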", "scale": "mean z-score, 3 replicates: higher = more ATP, more surviving cells under manganese", "hit rule": "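a knockdown is active when its averaged z-score lies above 1.5 or below -1.5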", "calls": "active = hit: z-score beyond ±1.5 (ATP up or down); inactive = not a hit", "note": "The whole screen tested 418 reagents; below is an unselected part. 34 of them (8.1%) count as active. 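Hits are two-sided: raised or lowered ATP both count; higher z-score means more ATP and more surviving cells.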 The record does not give: the amount of reagent."}
{"predicted target":"CG9577","amplicon":"DRSC20693","mean z-score, 3 replicates":-0.762,"Call":"inactive"}
{"predicted target":"CG9577","amplicon":"DRSC27691","mean z-score, 3 replicates":0.0683,"Call":"inactive"}
{"predicted target":"Vha13 (Vacuolar H[+] ATPase 13kD subunit)","amplicon":"DRSC16895","mean z-score, 3 replicates":1.02,"Call":"inactive"}
{"predicted target":"Vps25 (Vacuolar protein sorting 25)","amplicon":"DRSC06486","mean z-score, 3 replicates":-0.71,"Call":"inactive"}
{"predicted target":"Vps25 (Vacuolar protein sorting 25)","amplicon":"DRSC31962","mean z-score, 3 replicates":-0.116,"Call":"inactive"}
{"predicted target":"Vps25 (Vacuolar protein sorting 25)","amplicon":"DRSC31963","mean z-score, 3 replicates":-1.32,"Call":"inactive"}
{"predicted target":"Xpac (Xeroderma pigmentosum group A-like)","amplicon":"DRSC18730","mean z-score, 3 replicates":-0.458,"Call":"inactive"}
{"predicted target":"Xpac (Xeroderma pigmentosum group A-like)","amplicon":"DRSC25963","mean z-score, 3 replicates":2.2,"Call":"active"}
{"predicted target":"Xpac (Xeroderma pigmentosum group A-like)","amplicon":"DRSC41029","mean z-score, 3 replicates":0.85,"Call":"inactive"}
{"predicted target":"Abcd1 (ATP binding cassette subfamily D member 1)","amplicon":"DRSC17157","mean z-score, 3 replicates":0.71,"Call":"inactive"}
{"predicted target":"Abcd1 (ATP binding cassette subfamily D member 1)","amplicon":"DRSC39677","mean z-score, 3 replicates":0.113,"Call":"inactive"}
{"predicted target":"Vha68-1 (Vacuolar H[+] ATPase 68kD subunit 1)","amplicon":"DRSC03470","mean z-score, 3 replicates":-0.205,"Call":"inactive"}
{"predicted target":"Vha68-1 (Vacuolar H[+] ATPase 68kD subunit 1)","amplicon":"DRSC31230","mean z-score, 3 replicates":-1.02,"Call":"inactive"}
{"predicted target":"Vha68-1 (Vacuolar H[+] ATPase 68kD subunit 1)","amplicon":"DRSC40775","mean z-score, 3 replicates":1.85,"Call":"active"}
{"predicted target":"VhaAC39-1 (Vacuolar H[+] ATPase AC39 subunit 1)","amplicon":"DRSC27608","mean z-score, 3 replicates":-0.318,"Call":"inactive"}
{"predicted target":"VhaAC39-1 (Vacuolar H[+] ATPase AC39 subunit 1)","amplicon":"DRSC31237","mean z-score, 3 replicates":2.23,"Call":"active"}
{"predicted target":"VhaAC39-1 (Vacuolar H[+] ATPase AC39 subunit 1)","amplicon":"DRSC31238","mean z-score, 3 replicates":0.417,"Call":"inactive"}
{"predicted target":"ry (rosy)","amplicon":"DRSC17048","mean z-score, 3 replicates":-0.408,"Call":"inactive"}
{"predicted target":"ry (rosy)","amplicon":"DRSC27399","mean z-score, 3 replicates":0.0231,"Call":"inactive"}
{"predicted target":"ry (rosy)","amplicon":"DRSC41026","mean z-score, 3 replicates":0.094,"Call":"inactive"}
{"predicted target":"Hacl (2-hydroxyacyl-CoA lyase)","amplicon":"DRSC06061","mean z-score, 3 replicates":-0.122,"Call":"inactive"}
{"predicted target":"Hacl (2-hydroxyacyl-CoA lyase)","amplicon":"DRSC37107","mean z-score, 3 replicates":-0.0309,"Call":"inactive"}
{"predicted target":"Npc2b (Niemann-Pick type C-2b)","amplicon":"DRSC15464","mean z-score, 3 replicates":0.692,"Call":"inactive"}
{"predicted target":"Pex11c (Peroxin 11c)","amplicon":"DRSC14677","mean z-score, 3 replicates":-0.448,"Call":"inactive"}
{"predicted target":"Vha100-4 (Vacuolar H[+] ATPase 100kD subunit 4)","amplicon":"DRSC16282","mean z-score, 3 replicates":-0.205,"Call":"inactive"}
{"predicted target":"Vha100-4 (Vacuolar H[+] ATPase 100kD subunit 4)","amplicon":"DRSC26139","mean z-score, 3 replicates":-0.0243,"Call":"inactive"}
{"predicted target":"Gbp2 (Growth-blocking peptide 2)","amplicon":"DRSC06069","mean z-score, 3 replicates":-0.704,"Call":"inactive"}
{"predicted target":"Hmgcl (3-Hydroxymethyl-3-methylglutaryl-CoA lyase)","amplicon":"DRSC02051","mean z-score, 3 replicates":-0.61,"Call":"inactive"}
{"predicted target":"Tsp42Ea (Tetraspanin 42Ea)","amplicon":"DRSC04982","mean z-score, 3 replicates":1.06,"Call":"inactive"}
{"predicted target":"Tsp42Ea (Tetraspanin 42Ea)","amplicon":"DRSC06792","mean z-score, 3 replicates":0.862,"Call":"inactive"}
{"predicted target":"g (garnet)","amplicon":"DRSC20335","mean z-score, 3 replicates":0.328,"Call":"inactive"}
{"predicted target":"g (garnet)","amplicon":"DRSC26118","mean z-score, 3 replicates":1.02,"Call":"inactive"}
{"predicted target":"CG13084","amplicon":"DRSC02188","mean z-score, 3 replicates":-0.0237,"Call":"inactive"}
{"predicted target":"CG7049","amplicon":"DRSC08587","mean z-score, 3 replicates":0.134,"Call":"inactive"}
{"predicted target":"CG7049","amplicon":"DRSC26356","mean z-score, 3 replicates":1.15,"Call":"inactive"}
{"predicted target":"CG12355","amplicon":"DRSC09381","mean z-score, 3 replicates":0.24,"Call":"inactive"}
{"predicted target":"CG12355","amplicon":"DRSC09883","mean z-score, 3 replicates":0.581,"Call":"inactive"}
{"predicted target":"Vha16-5 (Vacuolar H[+] ATPase 16kD subunit 5)","amplicon":"DRSC02986","mean z-score, 3 replicates":-0.592,"Call":"inactive"}
{"predicted target":"Vha16-5 (Vacuolar H[+] ATPase 16kD subunit 5)","amplicon":"DRSC35452","mean z-score, 3 replicates":-0.766,"Call":"inactive"}
{"predicted target":"Vha16-5 (Vacuolar H[+] ATPase 16kD subunit 5)","amplicon":"DRSC35453","mean z-score, 3 replicates":-0.422,"Call":"inactive"}
{"predicted target":"AP-1sigma (Adaptor Protein complex 1, sigma subunit)","amplicon":"DRSC15899","mean z-score, 3 replicates":0.604,"Call":"inactive"}
{"predicted target":"AP-1sigma (Adaptor Protein complex 1, sigma subunit)","amplicon":"DRSC40317","mean z-score, 3 replicates":-0.356,"Call":"inactive"}
{"predicted target":"VhaAC45 (Vacuolar H[+] ATPase AC45 accessory subunit)","amplicon":"DRSC07058","mean z-score, 3 replicates":1.42,"Call":"inactive"}
{"predicted target":"VhaAC45 (Vacuolar H[+] ATPase AC45 accessory subunit)","amplicon":"DRSC32085","mean z-score, 3 replicates":0.407,"Call":"inactive"}
{"predicted target":"VhaAC45 (Vacuolar H[+] ATPase AC45 accessory subunit)","amplicon":"DRSC39906","mean z-score, 3 replicates":0.081,"Call":"inactive"}
{"predicted target":"ATP6AP2 (ATPase H+ transporting accessory protein 2)","amplicon":"DRSC16420","mean z-score, 3 replicates":0.26,"Call":"inactive"}
{"predicted target":"ATP6AP2 (ATPase H+ transporting accessory protein 2)","amplicon":"DRSC35549","mean z-score, 3 replicates":-0.0803,"Call":"inactive"}
{"predicted target":"ATP6AP2 (ATPase H+ transporting accessory protein 2)","amplicon":"DRSC39882","mean z-score, 3 replicates":-0.0612,"Call":"inactive"}
{"predicted target":"Chc (Clathrin heavy chain)","amplicon":"DRSC20229","mean z-score, 3 replicates":-1.34,"Call":"inactive"}
{"predicted target":"Chc (Clathrin heavy chain)","amplicon":"DRSC34418","mean z-score, 3 replicates":-0.75,"Call":"inactive"}
{"predicted target":"Chc (Clathrin heavy chain)","amplicon":"DRSC34419","mean z-score, 3 replicates":-1.04,"Call":"inactive"}
{"predicted target":"CG14777","amplicon":"DRSC18563","mean z-score, 3 replicates":0.0175,"Call":"inactive"}
{"predicted target":"CG14777","amplicon":"DRSC40040","mean z-score, 3 replicates":0.247,"Call":"inactive"}
{"predicted target":"Npc2h (Niemann-Pick type C-2h)","amplicon":"DRSC14297","mean z-score, 3 replicates":-2.23,"Call":"active"}
{"predicted target":"Gba1b (Glucocerebrosidase 1b)","amplicon":"DRSC21531","mean z-score, 3 replicates":0.837,"Call":"inactive"}
{"predicted target":"Vps16B (Vacuolar protein sorting 16B)","amplicon":"DRSC15304","mean z-score, 3 replicates":-0.366,"Call":"inactive"}
{"predicted target":"Vps16B (Vacuolar protein sorting 16B)","amplicon":"DRSC34692","mean z-score, 3 replicates":-0.207,"Call":"inactive"}
{"predicted target":"Vps16B (Vacuolar protein sorting 16B)","amplicon":"DRSC34693","mean z-score, 3 replicates":-0.67,"Call":"inactive"}
{"predicted target":"Pex3 (Peroxin 3)","amplicon":"DRSC10731","mean z-score, 3 replicates":0.287,"Call":"inactive"}
{"predicted target":"Pex3 (Peroxin 3)","amplicon":"DRSC40003","mean z-score, 3 replicates":-0.00352,"Call":"inactive"}

A portion taken from the entries so far, for reference:
{"predicted target":"VhaAC45 (Vacuolar H[+] ATPase AC45 accessory subunit)","amplicon":"DRSC32085","mean z-score, 3 replicates":0.407,"Call":"inactive"}
{"predicted target":"VhaAC45 (Vacuolar H[+] ATPase AC45 accessory subunit)","amplicon":"DRSC39906","mean z-score, 3 replicates":0.081,"Call":"inactive"}
{"predicted target":"ATP6AP2 (ATPase H+ transporting accessory protein 2)","amplicon":"DRSC16420","mean z-score, 3 replicates":0.26,"Call":"inactive"}
{"predicted target":"ATP6AP2 (ATPase H+ transporting accessory protein 2)","amplicon":"DRSC35549","mean z-score, 3 replicates":-0.0803,"Call":"inactive"}
{"predicted target":"ATP6AP2 (ATPase H+ transporting accessory protein 2)","amplicon":"DRSC39882","mean z-score, 3 replicates":-0.0612,"Call":"inactive"}
